# According to the supplement of paper PMC12823440, “Inhibitors supercharge kinase turnover through native proteolytic circuits” (Nature, 2025):
# Counter-ions that a name gives are not always drawn. The list shows a part of the results. Hit calls seldom repeat between salt and free forms of one compound.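 In K562 cells expressing nanoluciferase-fused kinases, luminescence was recorded at 4 h intervals between 2 and 18 h, normalized as percent of control with DMSO at 100% and a positive control at 0%. A significant (2 sigma) signal drop marks a time point as decreased. The authors' rule for a hit is not shown and takes in more than the number of time points.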
# Target: ZAK (UniProt Q9NYL2)
# Experiment: number of time points (of 5) at which kinase-Nluc abundance scored as decreased, DMSO-normalised (count); higher = more persistent destabilization
# Details: K562; 2-18 h
row,SMILES,number of time points
1,Cc1ccc(Nc2cc(N[C@@H]3CCCC[C@@H]3N)nnc2C(N)=O)nc1C (2 µM),0
2,NC(=O)c1sc2c([N+](=O)[O-])cc(C(F)(F)F)cc2[n+]1[O-] [Cyclapolin 9] (10 µM),0
3,O=C(C#Cc1ccccc1)c1cccc([N+](=O)[O-])c1 (10 µM),0
4,NC(=O)c1ccccc1Nc1ccnc(Nc2cccc(O)c2)n1 (10 µM),0
5,Cc1cncc2cccc(S(=O)(=O)N3CCCNC[C@@H]3C)c12 [H-1152 (dihydrochloride)] (10 µM),0
6,C=CC(=O)Nc1cccc(Oc2nc(Nc3ccc(N4CCN(C)CC4)cc3OC)ncc2Cl)c1 (10 µM),0
7,Cc1n[nH]c2ncc(C(=O)N3CCC[C@H]3c3ccc(Cl)cc3)cc12 (10 µM),0
8,N#Cc1cnc(Nc2cc(NC[C@H]3CNCCO3)c(C(F)(F)F)cn2)cn1 (10 µM),0
9,Cc1ncc(-c2cc(F)c(O)c(F)c2)cc1-c1cc(F)c(O)c(F)c1 (10 µM),0
10,N#Cc1cc(N2CCC(C(=O)N3N=CC[C@H]3c3cc(F)cc(F)c3)CC2)ncn1 (10 µM),0
11,C[C@H](Nc1cc2c(-c3ccc4c(c3)OCO4)noc2cn1)c1ccccc1 (10 µM),0
12,CCOC(=O)c1c(N2CCc3ccc(OC)cc3C2)oc(C=C2C=Nc3ncccc32)c1O (10 µM),0
13,CC(C)n1cnc2c(Nc3cccc(Cl)c3)nc(N[C@H]3CCCC[C@@H]3N)nc21 (2.5 µM),0
14,Nc1ccc(Sc2nc3ccccc3s2)c(Cl)c1 [KRAS inhibitor-9] (10 µM),0
15,COc1cc2c(cc1OC)[C@@H]1C(=O)c3ccc4c(c3O[C@@H]1CO2)C=CC(C)(C)O4 [Deguelin] (10 µM),0
16,Cn1cc(-c2nc(N[C@@H]3CCCC[C@@H]3N)c(F)c3c2C(=O)NC3)cn1 [TAK-659 (hydrochloride)] (2 µM),0
17,CCOC(=O)c1c(Nc2ccccc2Cl)oc(/C=C2\C=Nc3ncccc32)c1O (10 µM),0
18,NC(=O)c1c(NC(=O)C2CC2)sc2c1CCCC2 (10 µM),0
19,CN1CCC(Nc2nc(Nc3ccc(Oc4ccccc4)cc3)c3c(=O)[nH]cc(Br)c3n2)CC1 (2.5 µM),0

# Molecules above containing a cyano group (2):
row,SMILES,number of time points
8,N#Cc1cnc(Nc2cc(NC[C@H]3CNCCO3)c(C(F)(F)F)cn2)cn1 (10 µM),0
10,N#Cc1cc(N2CCC(C(=O)N3N=CC[C@H]3c3cc(F)cc(F)c3)CC2)ncn1 (10 µM),0

# Remaining list, next part

row,SMILES,number of time points
1,N#CC(=C(/N)Sc1ccccc1N)/C(C#N)=C(\N)Sc1ccccc1N (10 µM),0
2,CC(C)n1c(CO)nc2c(F)cc(-c3nc(Nc4ccc(CN5CCNCC5)cn4)ncc3F)cc21 (10 µM),0
3,O=C(Nc1ccc(F)cc1F)C(NC(=S)Nc1cc(C(F)(F)F)cc(C(F)(F)F)c1)c1ccccc1 (racemic) (2.5 µM),0
4,COCCNc1cc(NC(=O)N2CCCc3cc(CN4CCOCC4=O)c(C=O)nc32)ncc1C#N (10 µM),0
5,CC/C(=C(\c1ccccc1)c1ccc(OCCNC)cc1)c1ccccc1 [N-Desmethyltamoxifen (hydrochloride)] (2.5 µM),0
6,C[C@@H]1CN(Cc2ccc(F)cc2)[C@@H](C)CN1C(=O)c1cc2c(C(=O)C(=O)N(C)C)cn(C)c2cc1Cl [Talmapimod] (10 µM),0
7,Nc1nccc(Oc2ccc3c(C(=O)Nc4cccc(C(F)(F)F)c4)cccc3c2)n1 (10 µM),0
8,COc1c(Nc2ncc(Cl)c(N[C@H]3[C@@H](C(N)=O)[C@@H]4C=C[C@H]3C4)n2)ccc2c1CC[C@@H](N1CCOCC1)CC2 (10 µM),0
9,CNCc1ccccc1Sc1cccc2ccccc12 [IFN alpha-IFNAR-IN-1 (hydrochloride)] (10 µM),0
10,COc1cccc(-c2cc(=O)c3ccccc3o2)c1N (10 µM),0
11,Nc1ccc(-c2nc3ccc(-c4nc5ccc(N)cc5[nH]4)cc3[nH]2)cc1 (10 µM),0
12,Cc1ccc(C2CC(=O)NC(SCC(=O)Nc3nccs3)=C2C#N)cc1 (stereo not drawn) [Necrostatin-34] (10 µM),0
13,CC(C)Cn1ncc2cc(Oc3ccc(F)cc3F)c(C(=O)NCCN(C)C)cc21 [p38α inhibitor 1] (10 µM),0
14,O=C(NC[C@H](O)CO)c1ccncc1Nc1ccc(I)cc1F [Pimasertib] (10 µM),0
15,CN1C(=O)N[C@@H](Cc2c[nH]c3c(Cl)cccc23)C1=O [Necrostatin 2 (S enantiomer)] (10 µM),0
16,Cc1cc2c(F)c(Oc3ncnn4cc(OC[C@@H](C)OC(=O)[C@H](C)N)c(C)c34)ccc2[nH]1 [Brivanib (alaninate)] (10 µM),0
17,C=CC(=O)Nc1cc(Nc2nccc(-c3cn(C)c4ccccc34)n2)c(OCC(F)(F)F)nc1N(C)CCNC [AST5902  (trimesylate)] (2.5 µM),0
18,COc1cc2nccc(Nc3cccc(Oc4ccccc4)c3)c2cc1OC (2.5 µM),0
19,CC(C)(Oc1ccc(Cl)cc1)C(=O)Nc1ccc(OCc2ccc(C#N)cc2)cc1 [AMPK activator 4] (10 µM),0
